Measured values from publication PMC7917804.
Residue numbers refer to the chain shown, from its start. These are yes or no findings as the source states them, for the method shown. In cells and extracts the contact can be indirect. Some results given as binding are weak or reduced against the parent protein; the word gives no strength. For part of these data: Sequences can lack the tags named with a protein.

Sequences of proteins named here, by UniProt entry; tags and fusion partners are left off.
UniProt A5YKK6: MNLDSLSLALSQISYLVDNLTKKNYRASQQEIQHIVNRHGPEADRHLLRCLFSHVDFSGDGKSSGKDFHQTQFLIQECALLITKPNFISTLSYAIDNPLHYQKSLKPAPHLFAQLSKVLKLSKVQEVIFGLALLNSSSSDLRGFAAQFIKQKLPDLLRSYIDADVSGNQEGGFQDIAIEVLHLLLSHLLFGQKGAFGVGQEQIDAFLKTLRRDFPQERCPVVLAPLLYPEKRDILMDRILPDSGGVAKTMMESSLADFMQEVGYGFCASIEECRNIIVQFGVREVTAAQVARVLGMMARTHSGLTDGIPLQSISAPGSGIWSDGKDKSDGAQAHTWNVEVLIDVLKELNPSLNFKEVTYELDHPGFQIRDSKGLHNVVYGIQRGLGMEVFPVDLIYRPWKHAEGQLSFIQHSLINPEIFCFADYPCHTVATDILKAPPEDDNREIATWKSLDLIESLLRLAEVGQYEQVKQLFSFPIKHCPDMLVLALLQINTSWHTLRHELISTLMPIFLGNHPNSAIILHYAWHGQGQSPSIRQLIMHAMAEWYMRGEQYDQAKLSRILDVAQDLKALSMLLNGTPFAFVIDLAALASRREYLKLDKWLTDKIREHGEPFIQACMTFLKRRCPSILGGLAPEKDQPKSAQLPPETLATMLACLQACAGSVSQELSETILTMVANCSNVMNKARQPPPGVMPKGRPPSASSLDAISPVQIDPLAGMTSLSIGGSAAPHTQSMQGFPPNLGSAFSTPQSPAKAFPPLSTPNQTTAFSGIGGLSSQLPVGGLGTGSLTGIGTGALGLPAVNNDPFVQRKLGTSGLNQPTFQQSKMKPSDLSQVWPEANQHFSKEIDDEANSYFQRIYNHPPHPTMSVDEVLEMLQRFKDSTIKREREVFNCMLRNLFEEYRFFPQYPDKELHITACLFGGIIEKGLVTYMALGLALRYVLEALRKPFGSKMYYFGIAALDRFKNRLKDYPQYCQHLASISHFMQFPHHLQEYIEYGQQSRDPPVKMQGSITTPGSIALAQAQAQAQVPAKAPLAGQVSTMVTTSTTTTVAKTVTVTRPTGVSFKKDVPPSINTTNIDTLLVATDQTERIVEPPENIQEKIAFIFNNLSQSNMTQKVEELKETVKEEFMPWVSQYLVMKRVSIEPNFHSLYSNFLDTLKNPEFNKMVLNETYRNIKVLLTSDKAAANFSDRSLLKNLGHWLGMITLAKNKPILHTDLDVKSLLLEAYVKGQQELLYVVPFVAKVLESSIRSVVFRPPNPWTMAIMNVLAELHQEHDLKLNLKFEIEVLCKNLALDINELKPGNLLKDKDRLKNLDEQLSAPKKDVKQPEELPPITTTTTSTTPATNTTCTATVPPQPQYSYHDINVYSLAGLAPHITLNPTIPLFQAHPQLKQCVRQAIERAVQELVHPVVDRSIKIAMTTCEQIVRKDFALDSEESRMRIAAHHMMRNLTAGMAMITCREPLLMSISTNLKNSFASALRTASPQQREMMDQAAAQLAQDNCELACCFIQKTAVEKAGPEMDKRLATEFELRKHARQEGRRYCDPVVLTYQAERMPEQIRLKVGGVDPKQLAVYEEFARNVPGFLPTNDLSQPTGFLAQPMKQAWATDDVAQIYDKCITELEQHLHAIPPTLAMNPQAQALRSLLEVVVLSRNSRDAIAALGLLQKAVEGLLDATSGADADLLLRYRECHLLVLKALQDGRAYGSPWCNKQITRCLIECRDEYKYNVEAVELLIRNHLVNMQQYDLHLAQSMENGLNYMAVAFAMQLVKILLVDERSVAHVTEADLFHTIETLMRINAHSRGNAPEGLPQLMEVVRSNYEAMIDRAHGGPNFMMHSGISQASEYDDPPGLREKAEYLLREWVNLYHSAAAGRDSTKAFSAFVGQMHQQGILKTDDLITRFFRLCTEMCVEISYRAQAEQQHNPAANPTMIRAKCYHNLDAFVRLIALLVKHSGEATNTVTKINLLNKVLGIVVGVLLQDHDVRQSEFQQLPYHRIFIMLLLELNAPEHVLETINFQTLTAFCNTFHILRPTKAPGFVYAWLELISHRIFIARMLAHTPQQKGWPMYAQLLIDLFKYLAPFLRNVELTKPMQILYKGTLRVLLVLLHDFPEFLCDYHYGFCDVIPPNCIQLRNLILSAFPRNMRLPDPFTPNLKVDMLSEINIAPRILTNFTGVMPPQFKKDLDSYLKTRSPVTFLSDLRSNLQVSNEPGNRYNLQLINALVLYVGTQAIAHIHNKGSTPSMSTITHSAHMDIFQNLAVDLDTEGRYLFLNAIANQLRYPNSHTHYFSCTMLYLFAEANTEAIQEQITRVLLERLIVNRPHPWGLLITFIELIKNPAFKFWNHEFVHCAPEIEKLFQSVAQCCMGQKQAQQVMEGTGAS
UniProt Q92600: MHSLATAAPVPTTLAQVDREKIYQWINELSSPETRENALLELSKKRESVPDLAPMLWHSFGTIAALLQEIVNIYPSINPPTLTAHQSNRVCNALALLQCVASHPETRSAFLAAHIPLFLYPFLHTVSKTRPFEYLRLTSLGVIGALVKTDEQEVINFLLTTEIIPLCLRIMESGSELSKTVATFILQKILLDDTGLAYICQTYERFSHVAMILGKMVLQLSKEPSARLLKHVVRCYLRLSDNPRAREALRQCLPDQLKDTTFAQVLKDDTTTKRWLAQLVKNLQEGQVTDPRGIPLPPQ

What was measured:
[1] = biological target: FHS-FL-TNRC6A-S1616A/S1691A (human) (UniProt Q8NDV7); experiment: co-IP; lysates of HeLa cells expressing FHS-tagged TNRC6A-SD fragments (collected 24 h after transfection) or full-length TNRC6A (36 h), anti-FLAG antibody beads 2 h at 4 °C, lysis buffer with 140 mM NaCl, wash buffer with 300 mM NaCl and 0.5% NP40; endogenous CNOT1, CNOT9 and PABP detected by Western …
[2] = biological target: T1, FHS-TNRC6A-SD-S1332A/S1346A/S1616A/S1691A (human) (UniProt Q8NDV7); experiment: as above
T1 sequence: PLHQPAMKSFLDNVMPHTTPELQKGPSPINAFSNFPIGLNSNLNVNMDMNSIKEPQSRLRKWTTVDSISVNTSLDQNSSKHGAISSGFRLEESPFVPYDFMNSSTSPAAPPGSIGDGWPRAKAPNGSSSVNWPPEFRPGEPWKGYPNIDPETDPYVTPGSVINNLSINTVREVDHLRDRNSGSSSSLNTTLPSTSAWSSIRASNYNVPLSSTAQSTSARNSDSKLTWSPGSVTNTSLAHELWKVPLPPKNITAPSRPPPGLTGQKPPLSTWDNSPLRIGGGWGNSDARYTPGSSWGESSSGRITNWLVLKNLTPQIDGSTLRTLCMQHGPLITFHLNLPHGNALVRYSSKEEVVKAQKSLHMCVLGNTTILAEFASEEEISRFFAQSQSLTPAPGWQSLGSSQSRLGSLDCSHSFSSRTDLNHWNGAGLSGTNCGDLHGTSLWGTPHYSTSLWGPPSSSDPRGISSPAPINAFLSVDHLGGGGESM

[3] = biological target: T2, FHS-TNRC6A-SD-S1616A/S1691A (human) (UniProt Q8NDV7); experiment: as above
T2 sequence: T1 sequence with A109S, A123S

[4] = biological target: T3, myc-GFP-TNRC6A-SD (silencing domain fragment, amino acids 1224-1709) (human) (UniProt Q8NDV7); experiment: co-IP; lysates of HeLa cells expressing GFP-tagged TNRC6A fragments, immunoprecipitated with anti-GFP antibody; endogenous CNOT1 and CNOT9 detected by Western blot
T3 sequence: T1 sequence with A109S, A123S, A393S, A468S

[5] = biological target: T4, myc-GFP-TNRC6A-SD-CIM2 (amino acids 1529-1709) (human) (UniProt Q8NDV7); experiment: as above
T4 sequence: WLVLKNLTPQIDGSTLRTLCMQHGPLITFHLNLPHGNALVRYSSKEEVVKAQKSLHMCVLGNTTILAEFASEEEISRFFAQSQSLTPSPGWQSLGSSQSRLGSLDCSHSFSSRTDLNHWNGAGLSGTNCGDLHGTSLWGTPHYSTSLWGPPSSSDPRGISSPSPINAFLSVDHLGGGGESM

[6] = biological target: T5, myc-GFP-TNRC6A-SD-CIM1 (amino acids 1224-1528) (human) (UniProt Q8NDV7); experiment: as above
T5 sequence: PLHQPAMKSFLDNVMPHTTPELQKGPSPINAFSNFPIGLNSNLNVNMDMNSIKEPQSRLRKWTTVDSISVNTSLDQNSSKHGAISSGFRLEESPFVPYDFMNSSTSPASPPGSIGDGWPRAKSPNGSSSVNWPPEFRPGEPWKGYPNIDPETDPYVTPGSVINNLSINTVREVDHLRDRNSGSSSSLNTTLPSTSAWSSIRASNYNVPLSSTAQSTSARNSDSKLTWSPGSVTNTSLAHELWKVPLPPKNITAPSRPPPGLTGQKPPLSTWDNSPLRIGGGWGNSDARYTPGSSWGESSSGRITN

binding [1]	binding [2]	binding [3]	binding [4]	binding [5]	binding [6]	Substance
binds	binds	binds	binds	no binding	no binding	CNOT1 (from UniProt A5YKK6 1-2376)
binds	binds	binds	binds	no binding	no binding	CNOT9 (from UniProt Q92600 1-299)
